# Assay results published in publication PMC11570472, “Activity and phosphatidylcholine transfer protein interactions of skeletal muscle thioesterase Them2 enable hepatic steatosis and insulin resistance” (The Journal of Biological Chemistry, 2024).
# These are yes or no findings as the source states them, for the method shown. Binding seen in cells or lysates may run through a third protein. Some entries that bind do so weakly or less than the wild type. Where a sequence is shown, tags or fusion partners need not be part of it.
# T1: FLAG-tagged N50A/D65A Them2 expressed in mouse skeletal muscle from AAV8-Mck-N50A/D65A Them2 (mouse) (UniProt Q9CQR4)
# T1 sequence: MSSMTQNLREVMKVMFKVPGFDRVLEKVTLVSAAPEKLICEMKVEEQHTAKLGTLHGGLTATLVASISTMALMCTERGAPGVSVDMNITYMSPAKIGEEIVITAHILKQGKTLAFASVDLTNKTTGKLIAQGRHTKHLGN
# T2: FLAG-tagged WT Them2 expressed in mouse skeletal muscle from AAV8-Mck-WT Them2 (mouse) (UniProt Q9CQR4)
# T2 sequence: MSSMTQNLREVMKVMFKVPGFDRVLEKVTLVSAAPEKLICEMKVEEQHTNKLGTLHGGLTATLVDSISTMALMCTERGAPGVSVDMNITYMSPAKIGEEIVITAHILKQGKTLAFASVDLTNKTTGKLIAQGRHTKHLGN
# What was measured:
# [1] = target: T1, FLAG-tagged N50A/D65A Them2 expressed in mouse skeletal muscle from AAV8-Mck-N50A/D65A Them2 (mouse); experiment: co-IP; anti-FLAG magnetic agarose; gastrocnemius lysates 7 days after i.m. AAV8 injection; lysis buffer 25 mM Tris-HCl pH 7.4, 150 mM NaCl, 1 mM EDTA, 1% NP-40, 5% glycerol; 37 °C, 40 min; immunoblot
# [2] = target: T2, FLAG-tagged WT Them2 expressed in mouse skeletal muscle from AAV8-Mck-WT Them2 (mouse); experiment: as above
binder,measurement,setting,value
"phosphatidylcholine transfer protein (PC-TP) (protein, UniProt P53808 1-214) MAGAACCFSDEQFREACAELQKPALTGADWQLLVEASGITIYRLLDQPSGLYEYKVFGVLEGCSPALLTDVYMDLDYRKQWDQYVKELYEKESDEQMVAYWEVKYPFPLSNRDYVYTRQRRDLDVDRRKIYVVLAQSISAPQFPEKSGVIRVKQYKQSLAIESDGKKGSRVFMYYFDNPGGQIPSWLINWAAKNGVPNFLKDMVKACQNYHKKT",binding,[1],binds
same,binding,[2],binds
